# These are yes or no findings as the source states them, for the method shown. Binding seen in cells or lysates may run through a third protein. Here binding means that the protein was enriched with, or labelled near, the bait; the list need not be complete. Where a sequence is shown, tags or fusion partners need not be part of it.
# Target: T1, GFP::RAB-11.1 (C. elegans) (UniProt O01803)
# T1 sequence: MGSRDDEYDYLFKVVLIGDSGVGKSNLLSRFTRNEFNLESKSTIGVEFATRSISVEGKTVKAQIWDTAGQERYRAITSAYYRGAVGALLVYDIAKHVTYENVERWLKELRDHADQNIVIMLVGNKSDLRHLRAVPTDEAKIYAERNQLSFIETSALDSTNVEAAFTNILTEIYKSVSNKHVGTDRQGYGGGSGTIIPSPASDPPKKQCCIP
# Experiment: affinity purification with mass spectrometry; anti-GFP immunoprecipitation (mouse anti-GFP, Protein G magnetic beads) of GFP::RAB-10 or GFP::RAB-11.1 from late L4 worm extracts in non-denaturing lysis buffer (50 mM Hepes pH 7.4, 150 mM NaCl, 1 mM EDTA, 1% Triton X-100), 4°C; LC-MS/MS; worms on control or hsf-1 RNAi; two biological replicates
binder,measurement,value
"nuclear hormone receptor NHR-49 (protein, UniProt O45666 1-501) MDYFLDASKHIQLNQIDEESSDDFMDLVDPLAEPCAVCGDKSTGTHYGVISCNGCKGFFRRTVLRDQKFTCRFNKRCVIDKNFRCACRYCRFQKCVQVGMKREAIQFERDPVGSPTSGASLNGTPFKKDRSPGYENGNSNGVGSNGMGQENMRTVPQSSSVIDALMEMEARVNQEMCNRYRRSQIFANGSGGSNGNDTDIQQGSDSGASAFAPPNRPCTTEVDLNEISRTTLLLMVEWAKTINPFMDLSMEDKIILLKNYAPQHLILMPAFRSPDTTRVCLFNNTYMTRDNNTDLNGFAAFKTSNITPRVLDEIVWPMRQLQMREQEFVCLKALAFLHPEAKGLSNSSQIMIRDARNRVLKALYAFILDQMPDDAPTRYGNILLLAPALKALTQLLIENMTLTKFFGLAEVDSLLSEFILDDINDHSTAPVSLQQHLSSPTTLPTNGVSPLNPAGSVGSVSSVSGITPTGMLSATLAAPLAIHPLQSQDSILNSEQNNHML",binding,binds
